Test results published in patent US20030186254A1.
These are yes or no findings as the source states them, for the method shown. Some binding calls cover weakened binding; strength is not graded here.

Target: Tip60, clone of a human brain library in vector pACT2 (yeast two-hybrid prey) (human)
Assay: yeast two-hybrid screen of a human brain library

binding: binds
B1: amino-terminal half of PAK4 (amino acids 1 to 313, lacking the kinase domain) cloned into the vector pAS2-1 (yeast two-hybrid bait) (protein, not shown: large carriers)
chain: MFGKRKKRVEISAPSNFEHRVHTGFDQHEQKFTGLPRQWQSLIEESARRPKPLVDPACITSIQPGAPKTIVRGSKGAKDGALTLLLDEFENMSVTRSNSLRRDSPPPPARARQENGMPEEPATTARGGPGKAGSRGRFAGHSEAGGGSGDRRRAGPEKRPKSSREGSGGPQESSRDKRPLSGPDVGTPQPAGLASGAKLAAGRPFNTYPRADTDHPSRGAQGEPHDVAPNGPSAGGLAIPQSSSSSSRPPTRARGAPSPGVLGPHASEPQLAPPACTPAAPAVPGPPGPRSPQREPQRVSHEQFRAALQLVVD
